The values that follow come from paper PMC12818720 (ACS Applied Materials & Interfaces, 2025).

This data set can be described thus: general procedure: Fmoc solid-phase peptide synthesis; Wang resin preloaded with the first amino acid (Fmoc-Lys(Boc)-Wang or Fmoc-Asp(OtBu)-Wang, Novabiochem); HBTU/DIEA. The settings on record: whole synthesis.

HELM strings list residues between dots; [ac] is acetyl, [am] amide, other brackets name non-standard units.

For F 4D-GHK, the “final HPLC purity” value is given as 99.6%.
On to F 4D-KHG, for which the “final HPLC purity” value is 96.8%.
Under PEPTIDE1{F.F.F.F.D}$$$$V2.0 stands 98.3%.
